Publication PMC9818470
These are yes or no findings as the source states them, for the method shown. In cells and extracts the contact can be indirect. Some results given as binding are weak or reduced against the parent protein; the word gives no strength.

Amino acid sequences for entries named in this document (tags omitted). A change or cut given only in a name is not applied to a line headed by its entry. Chains listed by the source or under a name are the forms on record and can include a tag or linker.
UniProt Q8N163: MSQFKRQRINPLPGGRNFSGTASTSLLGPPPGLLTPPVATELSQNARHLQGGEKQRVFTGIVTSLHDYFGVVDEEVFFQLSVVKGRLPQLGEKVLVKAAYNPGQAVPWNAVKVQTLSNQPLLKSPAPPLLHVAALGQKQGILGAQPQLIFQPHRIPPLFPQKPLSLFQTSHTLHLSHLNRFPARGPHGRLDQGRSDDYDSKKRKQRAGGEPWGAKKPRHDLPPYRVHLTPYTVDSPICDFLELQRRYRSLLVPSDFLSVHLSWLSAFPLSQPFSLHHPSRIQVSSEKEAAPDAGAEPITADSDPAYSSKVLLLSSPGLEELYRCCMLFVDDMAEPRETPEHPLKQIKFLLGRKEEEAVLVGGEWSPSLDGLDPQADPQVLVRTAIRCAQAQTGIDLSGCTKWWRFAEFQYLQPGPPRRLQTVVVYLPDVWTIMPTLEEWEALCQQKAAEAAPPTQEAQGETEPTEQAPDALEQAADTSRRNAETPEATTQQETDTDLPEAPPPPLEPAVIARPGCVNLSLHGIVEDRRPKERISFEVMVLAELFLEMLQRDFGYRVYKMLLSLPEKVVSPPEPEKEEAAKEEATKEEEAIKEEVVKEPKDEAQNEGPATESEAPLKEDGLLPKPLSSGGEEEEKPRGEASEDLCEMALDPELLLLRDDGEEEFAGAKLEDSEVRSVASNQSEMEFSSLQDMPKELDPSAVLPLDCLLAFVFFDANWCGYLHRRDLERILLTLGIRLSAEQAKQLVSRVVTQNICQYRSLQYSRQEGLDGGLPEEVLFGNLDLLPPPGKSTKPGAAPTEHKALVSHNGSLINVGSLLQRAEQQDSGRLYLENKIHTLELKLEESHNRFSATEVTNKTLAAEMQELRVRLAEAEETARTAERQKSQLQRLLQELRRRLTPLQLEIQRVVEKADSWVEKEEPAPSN
DBC1 ΔNudix (Q8N163, form named): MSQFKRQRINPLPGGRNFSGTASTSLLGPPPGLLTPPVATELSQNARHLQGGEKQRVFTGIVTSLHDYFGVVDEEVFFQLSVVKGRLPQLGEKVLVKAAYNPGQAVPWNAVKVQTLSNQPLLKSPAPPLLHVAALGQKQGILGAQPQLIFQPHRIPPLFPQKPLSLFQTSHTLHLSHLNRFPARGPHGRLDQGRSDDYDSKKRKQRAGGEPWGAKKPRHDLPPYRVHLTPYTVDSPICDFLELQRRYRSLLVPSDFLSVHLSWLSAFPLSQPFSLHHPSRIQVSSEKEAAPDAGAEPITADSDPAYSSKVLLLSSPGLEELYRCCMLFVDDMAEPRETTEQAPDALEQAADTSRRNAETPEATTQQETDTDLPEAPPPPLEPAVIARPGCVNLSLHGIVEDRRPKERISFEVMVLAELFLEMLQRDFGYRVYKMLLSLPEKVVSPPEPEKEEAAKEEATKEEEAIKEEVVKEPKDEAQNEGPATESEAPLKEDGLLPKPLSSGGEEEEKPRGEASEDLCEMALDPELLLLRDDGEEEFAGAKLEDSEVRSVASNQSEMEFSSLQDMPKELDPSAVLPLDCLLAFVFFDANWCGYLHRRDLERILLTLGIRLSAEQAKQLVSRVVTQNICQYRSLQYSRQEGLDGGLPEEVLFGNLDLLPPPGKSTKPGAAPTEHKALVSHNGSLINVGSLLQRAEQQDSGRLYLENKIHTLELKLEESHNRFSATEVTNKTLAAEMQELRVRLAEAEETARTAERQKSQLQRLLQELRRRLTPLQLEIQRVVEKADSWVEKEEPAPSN
UniProt P54132: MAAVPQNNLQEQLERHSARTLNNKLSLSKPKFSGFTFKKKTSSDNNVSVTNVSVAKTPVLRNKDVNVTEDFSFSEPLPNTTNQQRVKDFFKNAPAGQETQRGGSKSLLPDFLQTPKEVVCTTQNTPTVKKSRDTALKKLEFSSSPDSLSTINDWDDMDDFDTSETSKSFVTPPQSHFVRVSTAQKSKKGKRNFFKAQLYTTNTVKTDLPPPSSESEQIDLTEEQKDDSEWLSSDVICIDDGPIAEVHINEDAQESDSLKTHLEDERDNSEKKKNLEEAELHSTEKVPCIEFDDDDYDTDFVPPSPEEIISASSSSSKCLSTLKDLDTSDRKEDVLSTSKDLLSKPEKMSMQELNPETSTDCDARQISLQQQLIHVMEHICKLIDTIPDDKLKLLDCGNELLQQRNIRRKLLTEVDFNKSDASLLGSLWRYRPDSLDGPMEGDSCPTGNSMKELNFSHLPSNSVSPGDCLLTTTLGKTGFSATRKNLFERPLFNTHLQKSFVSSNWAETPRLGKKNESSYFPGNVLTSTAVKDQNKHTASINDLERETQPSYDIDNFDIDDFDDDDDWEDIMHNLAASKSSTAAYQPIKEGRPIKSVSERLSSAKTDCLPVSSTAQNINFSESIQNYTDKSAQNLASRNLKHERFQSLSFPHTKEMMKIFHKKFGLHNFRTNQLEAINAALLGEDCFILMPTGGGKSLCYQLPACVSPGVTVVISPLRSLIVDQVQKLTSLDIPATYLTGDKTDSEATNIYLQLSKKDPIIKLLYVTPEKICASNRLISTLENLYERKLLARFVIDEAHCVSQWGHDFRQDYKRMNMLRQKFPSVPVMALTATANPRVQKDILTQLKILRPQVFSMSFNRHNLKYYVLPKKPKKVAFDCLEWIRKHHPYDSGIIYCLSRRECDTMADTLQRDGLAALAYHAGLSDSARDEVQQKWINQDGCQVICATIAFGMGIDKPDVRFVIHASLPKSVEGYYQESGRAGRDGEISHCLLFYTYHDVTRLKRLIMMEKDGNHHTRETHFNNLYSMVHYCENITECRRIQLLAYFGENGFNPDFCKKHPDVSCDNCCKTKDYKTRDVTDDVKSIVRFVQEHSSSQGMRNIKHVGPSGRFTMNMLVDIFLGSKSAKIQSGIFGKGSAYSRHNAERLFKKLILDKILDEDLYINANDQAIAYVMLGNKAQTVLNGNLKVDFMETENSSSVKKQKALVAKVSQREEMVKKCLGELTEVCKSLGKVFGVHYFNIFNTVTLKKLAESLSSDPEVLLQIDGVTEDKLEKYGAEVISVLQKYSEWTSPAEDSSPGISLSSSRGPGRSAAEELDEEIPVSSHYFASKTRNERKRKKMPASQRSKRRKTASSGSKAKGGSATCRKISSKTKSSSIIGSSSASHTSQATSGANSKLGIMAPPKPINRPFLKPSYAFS

Assays:
[1] = target: DBC1 ΔNudix (UniProt Q8N163); assay: co-IP; co-IP of full-length or truncated DBC1 with BLM from whole cell lysates, Western blot
[2] = target: full-length DBC1 (UniProt Q8N163); assay: as above
[3] = target: Flag-DBC1 (UniProt Q8N163); assay: co-IP; Flag-DBC1 immunoprecipitated, BLM blotted; cells treated with etoposide (100 μM), ML216 (50 μM) or both for 24 h
[4] = target: Deleted in Breast Cancer 1 (DBC1) (UniProt Q8N163); assay: co-IP; reciprocal immunoprecipitation of DBC1 and BLM from whole cell lysates, overnight, beads washed with Triton X-100 lysis buffer, Western blot
[5] = target: Flag-DBC1 (UniProt Q8N163); assay: co-IP; in vitro IP: four equal aliquots of lysate of 293T cells transfected with pMSCV-Flag-DBC1, incubated with anti-FLAG M2 affinity gel and 0, 20, 50 or 100 μM ML216 for 12 h, Western blot for BLM

Measured: binding

BLM (Bloom syndrome protein) (from UniProt P54132 1-1417)
binds: all assays above
